PubChem BioAssay AID602196 – INSERM | 2012
The deposit covers about 23,000 reagents; shown is an unselected part. Over the whole deposit, 455 (2%) got an active call. 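Active includes both protection and sensitisation; some change values fall well beyond the stated -50 to +50 range.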 The numbers tell different reagents against one gene apart. Not all columns of the deposit are shown. The record does not give: the amount of reagent.

Aim: 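Genes whose knock-down alters cisplatin killing of lung cancer cells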
Cell system: human A549 lung cancer cells
Reagents: siRNA pair against human genes
Timing: 48 h transfection before cisplatin; time from cisplatin to read-out not stated
Treatment: cisplatin at a dose killing half of control-siRNA cells; exact dose and duration not given
Read-out: 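Cisplatin cell death as a shift from the 50% death seen with control siRNA; siRNAs toxic or growth-blocking alone scored 0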
Scale: two-siRNA summed score (-2 to +2): higher = both siRNAs protect from cisplatin killing; -2 means both sensitise; mean protection from cisplatin (shift in death): higher = protection from cisplatin killing
Hit rule: 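Each siRNA scores 0 if harmful alone by LDH or WST-1, otherwise +1 if it reduces and -1 if it increases cisplatin killing; a gene is active when both siRNAs agree (sum +2 or -2)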
Calls: active = both siRNAs shift cisplatin killing the same way; inactive = no consistent shift, or siRNA harmful alone

gene	reagent no.	two-siRNA summed score (-2 to +2)	mean protection from cisplatin (shift in death) (%)	call
NSMCE1 (NSE1 component of SMC5/6 complex)	1	0	-0.7	inactive
IGFLR1 (IGF like family receptor 1)	1	-1	-3.9	inactive
ATP8B3 (ATPase phospholipid transporting 8B3)	1	0	1.4	inactive
SLC25A33	1	0	12.3	inactive
GAN (gigaxonin)	1	0	-6	inactive
MFSD8 (major facilitator superfamily domain containing 8)	1	0	0.6	inactive
USP7 (ubiquitin specific peptidase 7)	1	0	-4.9	inactive
MSL2 (MSL complex subunit 2)	1	-1	-4.3	inactive
SUGP1 (SURP and G-patch domain containing 1)	1	1	10.4	inactive
TGIF2 (TGFB induced factor homeobox 2)	1	0	8	inactive
C12orf42 (chromosome 12 open reading frame 42)	1	-1	-7.5	inactive
ZNF140 (zinc finger protein 140)	1	0	3.1	inactive
OR5M1 (olfactory receptor family 5 subfamily M member 1)	1	0	2.8	inactive
HEPH (hephaestin)	1	-1	-17.6	inactive
ALPK2 (alpha kinase 2)	1	0	7.6	inactive
LOC400923	1	0	4.1	inactive
CCT7 (chaperonin containing TCP1 subunit 7)	1	0	9.6	inactive
CTSE (cathepsin E)	1	0	22.1	inactive
SPDEF (SAM pointed domain containing ETS transcription factor)	1	-1	-7.2	inactive
NMU (neuromedin U)	1	-1	-15.7	inactive
RBM8A (RNA binding motif protein 8A)	1	0	-1.3	inactive
RAB37 (RAB37, member RAS oncogene family)	1	0	-6.4	inactive
DCC (DCC netrin 1 receptor)	1	0	4.4	inactive
HOXC8 (homeobox C8)	1	0	-2.4	inactive
RNF2 (ring finger protein 2)	1	0	9.6	inactive
MTCP1 (mature T cell proliferation 1)	1	0	10.9	inactive
MTCP1 (mature T cell proliferation 1)	2	0	14.5	inactive
LOC391165	1	0	0.4	inactive
LOC388574	1	1	8.9	inactive
LOC400388	1	1	12.2	inactive
TMEM50B (transmembrane protein 50B)	1	0	3.4	inactive
PSMG3 (proteasome assembly chaperone 3)	1	-1	-2	inactive
ZNF581 (zinc finger protein 581)	1	0	1.6	inactive
RIDA (reactive intermediate imine deaminase A)	1	-1	-5.7	inactive
SOX3 (SRY-box transcription factor 3)	1	0	10.8	inactive
DMC1 (DNA meiotic recombinase 1)	1	-1	-11.3	inactive
LOC442776	1	0	7.8	inactive
OR8J3 (olfactory receptor family 8 subfamily J member 3)	1	0	-7.6	inactive
KRTAP3-1 (keratin associated protein 3-1)	1	0	9.4	inactive
